# From the supplement of paper PMC7666118
# Amino acid sequences for entries named in this document (tags omitted). A change or cut given only in a name is not applied to a line headed by its entry.
# UniProt Q9H1Y0: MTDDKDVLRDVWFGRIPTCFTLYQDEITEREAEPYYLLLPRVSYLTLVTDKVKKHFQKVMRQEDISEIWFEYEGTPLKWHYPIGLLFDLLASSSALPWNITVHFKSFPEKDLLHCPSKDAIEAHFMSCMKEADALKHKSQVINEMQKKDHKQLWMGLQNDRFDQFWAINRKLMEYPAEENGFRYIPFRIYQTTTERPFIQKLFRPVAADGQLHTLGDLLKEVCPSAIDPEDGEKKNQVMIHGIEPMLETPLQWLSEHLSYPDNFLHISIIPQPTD
# UniProt O75348, whole entry: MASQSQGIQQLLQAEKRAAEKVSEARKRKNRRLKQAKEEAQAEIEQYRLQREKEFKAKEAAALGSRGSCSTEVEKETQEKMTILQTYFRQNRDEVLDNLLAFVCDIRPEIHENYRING
# UniProt Q13867: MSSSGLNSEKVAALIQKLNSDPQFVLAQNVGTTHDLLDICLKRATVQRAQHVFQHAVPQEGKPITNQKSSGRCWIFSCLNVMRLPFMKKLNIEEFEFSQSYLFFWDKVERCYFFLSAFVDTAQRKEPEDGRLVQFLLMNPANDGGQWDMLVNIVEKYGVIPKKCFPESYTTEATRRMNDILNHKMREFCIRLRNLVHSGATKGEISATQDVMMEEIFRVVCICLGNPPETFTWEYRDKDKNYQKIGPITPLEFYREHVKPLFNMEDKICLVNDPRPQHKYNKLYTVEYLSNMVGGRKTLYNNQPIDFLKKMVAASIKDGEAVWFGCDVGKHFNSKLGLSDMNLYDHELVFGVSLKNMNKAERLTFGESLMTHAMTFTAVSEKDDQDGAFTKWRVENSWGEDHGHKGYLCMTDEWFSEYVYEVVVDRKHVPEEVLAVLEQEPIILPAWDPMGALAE
# UniProt P56381: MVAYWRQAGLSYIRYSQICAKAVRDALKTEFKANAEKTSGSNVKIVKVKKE
# UniProt Q9BXK5, whole entry: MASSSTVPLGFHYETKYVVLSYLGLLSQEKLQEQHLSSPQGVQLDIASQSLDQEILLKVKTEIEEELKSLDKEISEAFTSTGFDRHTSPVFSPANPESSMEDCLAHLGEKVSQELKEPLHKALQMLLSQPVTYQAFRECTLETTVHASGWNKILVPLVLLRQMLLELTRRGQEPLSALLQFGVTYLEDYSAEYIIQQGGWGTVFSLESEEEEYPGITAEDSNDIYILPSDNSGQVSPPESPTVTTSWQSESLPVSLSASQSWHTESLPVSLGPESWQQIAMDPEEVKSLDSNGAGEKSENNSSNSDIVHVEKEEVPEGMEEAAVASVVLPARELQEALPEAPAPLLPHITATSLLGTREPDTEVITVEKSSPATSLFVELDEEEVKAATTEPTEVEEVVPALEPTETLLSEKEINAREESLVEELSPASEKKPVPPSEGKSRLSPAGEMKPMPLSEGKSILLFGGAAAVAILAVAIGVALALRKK
# UniProt O94817, whole entry: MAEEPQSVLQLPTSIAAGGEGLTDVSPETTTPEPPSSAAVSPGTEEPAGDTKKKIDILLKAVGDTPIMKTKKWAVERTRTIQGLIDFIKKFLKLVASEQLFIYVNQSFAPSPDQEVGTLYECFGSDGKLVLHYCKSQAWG
# UniProt Q07817, whole entry: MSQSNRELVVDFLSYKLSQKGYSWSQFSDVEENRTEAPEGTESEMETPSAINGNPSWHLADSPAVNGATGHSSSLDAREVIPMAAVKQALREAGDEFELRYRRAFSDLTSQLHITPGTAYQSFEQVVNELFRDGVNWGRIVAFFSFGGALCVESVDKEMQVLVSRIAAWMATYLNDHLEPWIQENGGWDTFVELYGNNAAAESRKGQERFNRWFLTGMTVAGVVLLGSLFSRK
# UniProt Q9NYF8, whole entry: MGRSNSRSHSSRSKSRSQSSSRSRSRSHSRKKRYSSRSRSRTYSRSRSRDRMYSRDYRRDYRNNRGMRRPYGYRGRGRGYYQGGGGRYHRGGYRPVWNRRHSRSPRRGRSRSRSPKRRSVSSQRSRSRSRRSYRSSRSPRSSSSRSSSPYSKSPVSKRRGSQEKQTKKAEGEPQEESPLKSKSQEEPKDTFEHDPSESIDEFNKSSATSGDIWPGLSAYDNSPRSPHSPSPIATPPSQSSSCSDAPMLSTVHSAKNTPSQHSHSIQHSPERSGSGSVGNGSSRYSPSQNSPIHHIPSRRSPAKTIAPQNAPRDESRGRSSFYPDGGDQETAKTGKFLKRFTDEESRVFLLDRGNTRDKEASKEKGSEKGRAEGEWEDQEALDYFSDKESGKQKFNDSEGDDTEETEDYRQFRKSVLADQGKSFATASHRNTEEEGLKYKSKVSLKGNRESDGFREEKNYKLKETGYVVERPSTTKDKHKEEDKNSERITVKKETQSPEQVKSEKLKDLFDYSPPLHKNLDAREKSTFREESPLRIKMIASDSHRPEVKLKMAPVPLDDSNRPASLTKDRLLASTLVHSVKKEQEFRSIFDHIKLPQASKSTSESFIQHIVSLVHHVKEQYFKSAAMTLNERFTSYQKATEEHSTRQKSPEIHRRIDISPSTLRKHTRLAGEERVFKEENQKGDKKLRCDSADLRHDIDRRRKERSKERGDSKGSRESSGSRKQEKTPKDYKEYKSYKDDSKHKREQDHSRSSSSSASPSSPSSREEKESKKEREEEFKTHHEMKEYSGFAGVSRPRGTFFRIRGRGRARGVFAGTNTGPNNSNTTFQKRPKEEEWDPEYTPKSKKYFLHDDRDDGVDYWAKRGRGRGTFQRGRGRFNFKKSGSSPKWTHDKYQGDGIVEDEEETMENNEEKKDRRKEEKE
# UniProt Q5JSZ5: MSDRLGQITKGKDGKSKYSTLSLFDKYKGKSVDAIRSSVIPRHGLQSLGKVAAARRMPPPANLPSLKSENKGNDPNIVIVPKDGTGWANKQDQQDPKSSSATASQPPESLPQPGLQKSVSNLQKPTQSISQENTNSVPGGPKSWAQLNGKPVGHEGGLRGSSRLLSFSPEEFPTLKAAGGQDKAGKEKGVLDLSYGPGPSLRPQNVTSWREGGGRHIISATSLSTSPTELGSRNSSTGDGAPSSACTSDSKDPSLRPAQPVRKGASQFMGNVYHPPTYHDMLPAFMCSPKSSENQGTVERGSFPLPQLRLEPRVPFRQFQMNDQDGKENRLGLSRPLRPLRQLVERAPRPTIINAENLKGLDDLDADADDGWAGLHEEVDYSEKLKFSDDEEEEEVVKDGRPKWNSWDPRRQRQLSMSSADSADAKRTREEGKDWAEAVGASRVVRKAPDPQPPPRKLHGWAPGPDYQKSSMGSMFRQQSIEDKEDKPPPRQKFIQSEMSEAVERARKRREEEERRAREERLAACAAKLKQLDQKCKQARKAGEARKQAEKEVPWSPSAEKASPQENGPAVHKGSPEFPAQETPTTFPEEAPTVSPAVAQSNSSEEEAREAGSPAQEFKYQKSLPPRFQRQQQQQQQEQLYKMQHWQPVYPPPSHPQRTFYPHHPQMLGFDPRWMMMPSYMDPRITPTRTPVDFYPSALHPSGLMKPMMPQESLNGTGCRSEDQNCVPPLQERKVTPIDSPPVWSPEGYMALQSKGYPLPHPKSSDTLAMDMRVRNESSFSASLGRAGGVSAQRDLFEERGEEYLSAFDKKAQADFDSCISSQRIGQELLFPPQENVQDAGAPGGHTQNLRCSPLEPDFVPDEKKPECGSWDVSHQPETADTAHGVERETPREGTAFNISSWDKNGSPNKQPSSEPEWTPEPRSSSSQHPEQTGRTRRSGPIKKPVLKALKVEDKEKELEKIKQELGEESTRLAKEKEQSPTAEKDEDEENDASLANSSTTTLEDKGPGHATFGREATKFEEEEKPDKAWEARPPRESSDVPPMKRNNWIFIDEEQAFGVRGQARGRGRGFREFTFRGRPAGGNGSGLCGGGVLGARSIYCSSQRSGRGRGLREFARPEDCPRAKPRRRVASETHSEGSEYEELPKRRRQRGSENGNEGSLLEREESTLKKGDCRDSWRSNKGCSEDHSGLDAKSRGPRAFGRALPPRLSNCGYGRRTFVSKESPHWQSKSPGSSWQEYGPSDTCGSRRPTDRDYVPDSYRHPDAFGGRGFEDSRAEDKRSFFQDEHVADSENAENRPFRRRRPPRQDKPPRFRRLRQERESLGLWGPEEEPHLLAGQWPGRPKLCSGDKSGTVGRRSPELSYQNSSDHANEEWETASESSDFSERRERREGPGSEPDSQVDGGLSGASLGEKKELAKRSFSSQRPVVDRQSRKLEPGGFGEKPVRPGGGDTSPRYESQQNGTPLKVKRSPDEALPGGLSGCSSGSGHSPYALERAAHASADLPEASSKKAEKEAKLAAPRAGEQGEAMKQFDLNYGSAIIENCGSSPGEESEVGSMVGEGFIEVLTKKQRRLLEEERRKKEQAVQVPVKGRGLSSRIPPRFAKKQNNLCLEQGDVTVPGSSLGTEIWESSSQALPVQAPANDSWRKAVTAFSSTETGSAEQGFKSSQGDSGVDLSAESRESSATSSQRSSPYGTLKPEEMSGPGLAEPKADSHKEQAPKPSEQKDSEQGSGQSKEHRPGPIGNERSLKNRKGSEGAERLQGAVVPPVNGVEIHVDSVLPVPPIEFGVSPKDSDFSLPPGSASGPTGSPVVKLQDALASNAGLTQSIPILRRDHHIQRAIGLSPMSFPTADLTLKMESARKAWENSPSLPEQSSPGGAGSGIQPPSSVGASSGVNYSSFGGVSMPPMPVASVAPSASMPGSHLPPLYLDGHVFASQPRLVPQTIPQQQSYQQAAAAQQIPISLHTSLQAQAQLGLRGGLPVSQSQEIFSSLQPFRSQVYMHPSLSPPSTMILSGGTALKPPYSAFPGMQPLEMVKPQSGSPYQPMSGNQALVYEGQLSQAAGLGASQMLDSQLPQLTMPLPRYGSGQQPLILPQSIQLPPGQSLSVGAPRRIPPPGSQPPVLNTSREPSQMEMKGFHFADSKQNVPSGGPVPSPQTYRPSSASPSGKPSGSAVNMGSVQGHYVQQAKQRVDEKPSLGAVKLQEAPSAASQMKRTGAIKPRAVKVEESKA
# UniProt P17544: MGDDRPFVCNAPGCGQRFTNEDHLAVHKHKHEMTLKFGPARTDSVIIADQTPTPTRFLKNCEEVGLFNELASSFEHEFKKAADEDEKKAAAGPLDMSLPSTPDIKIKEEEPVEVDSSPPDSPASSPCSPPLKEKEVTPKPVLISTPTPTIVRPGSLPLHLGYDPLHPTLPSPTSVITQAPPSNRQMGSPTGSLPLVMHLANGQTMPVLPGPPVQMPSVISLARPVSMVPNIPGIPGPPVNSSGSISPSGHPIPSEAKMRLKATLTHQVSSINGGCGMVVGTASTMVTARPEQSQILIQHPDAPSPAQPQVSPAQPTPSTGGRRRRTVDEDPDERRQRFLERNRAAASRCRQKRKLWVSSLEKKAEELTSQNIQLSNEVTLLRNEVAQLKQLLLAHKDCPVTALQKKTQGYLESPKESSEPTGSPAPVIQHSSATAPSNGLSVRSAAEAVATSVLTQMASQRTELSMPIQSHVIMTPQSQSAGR
# UniProt Q93084: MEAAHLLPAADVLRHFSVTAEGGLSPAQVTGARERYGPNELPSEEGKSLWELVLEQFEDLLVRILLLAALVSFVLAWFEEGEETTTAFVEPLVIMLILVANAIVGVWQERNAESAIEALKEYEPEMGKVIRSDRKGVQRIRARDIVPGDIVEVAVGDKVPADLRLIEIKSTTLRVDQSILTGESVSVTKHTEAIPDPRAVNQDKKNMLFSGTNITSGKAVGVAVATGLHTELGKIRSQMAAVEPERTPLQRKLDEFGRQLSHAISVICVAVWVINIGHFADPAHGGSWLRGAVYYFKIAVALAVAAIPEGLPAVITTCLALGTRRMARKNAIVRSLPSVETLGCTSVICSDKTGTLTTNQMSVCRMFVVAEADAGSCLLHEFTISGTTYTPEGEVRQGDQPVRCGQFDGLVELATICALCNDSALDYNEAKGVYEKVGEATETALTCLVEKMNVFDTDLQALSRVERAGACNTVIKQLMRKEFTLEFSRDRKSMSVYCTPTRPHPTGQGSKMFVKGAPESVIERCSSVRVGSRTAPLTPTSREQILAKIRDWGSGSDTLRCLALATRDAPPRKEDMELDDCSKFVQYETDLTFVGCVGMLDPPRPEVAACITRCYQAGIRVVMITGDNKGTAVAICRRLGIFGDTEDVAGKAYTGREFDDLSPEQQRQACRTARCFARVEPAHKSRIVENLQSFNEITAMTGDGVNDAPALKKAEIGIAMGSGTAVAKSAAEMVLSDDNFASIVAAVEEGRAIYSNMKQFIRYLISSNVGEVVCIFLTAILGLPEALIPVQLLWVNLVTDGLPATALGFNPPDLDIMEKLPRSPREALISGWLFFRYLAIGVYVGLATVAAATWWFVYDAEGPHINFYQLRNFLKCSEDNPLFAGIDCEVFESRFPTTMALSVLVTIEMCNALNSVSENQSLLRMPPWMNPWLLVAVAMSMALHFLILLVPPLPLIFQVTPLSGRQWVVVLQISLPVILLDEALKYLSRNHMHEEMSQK
# UniProt Q13323: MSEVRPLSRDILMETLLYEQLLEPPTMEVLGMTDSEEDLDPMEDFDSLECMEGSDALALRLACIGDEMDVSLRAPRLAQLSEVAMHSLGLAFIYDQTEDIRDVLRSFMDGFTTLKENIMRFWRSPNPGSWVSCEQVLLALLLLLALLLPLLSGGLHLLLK
# Some of the results follow.
# Compound: COc1ccc(Cn2ccc3ccc(C(=O)NO)cc32)cc1
# Assay: dose-dependent thermal stabilisation call (2D-TPP, DLPTP, 10% FDR) (binary (1 = stabilised)); higher = stabilised by the compound
# Settings: system: HL-60 intact cells; concentration range 0.04-10 µM
row,Target,dose-dependent thermal stabilisation call
1,BRCA2 (UniProt P51587),inactive: 0
2,Ataxin-10,inactive: 0
3,ATP5I (UniProt P56385),inactive: 0
4,ATP8B4 (UniProt Q8TF62),inactive: 0
5,ATG5 (UniProt Q9H1Y0),inactive: 0
6,ASCC2 (UniProt Q9H1I8),inactive: 0
7,ATP6V1G1 (UniProt O75348),inactive: 0
8,AURKA (UniProt O14965),inactive: 0
9,C11ORF84 (UniProt Q9BUA3),inactive: 0
10,BLVRA (UniProt P53004),inactive: 0
11,BLMH (UniProt Q13867),inactive: 0
12,ATP6V0A1 (UniProt Q93050),inactive: 0
13,ATP5E (UniProt P56381),inactive: 0
14,ASL (UniProt P04424),inactive: 0
15,BCL2L13 (UniProt Q9BXK5),inactive: 0
16,ARSB (UniProt P15848),inactive: 0
17,BZW2 (UniProt Q9Y6E2),inactive: 0
18,ASS1 (UniProt P00966),inactive: 0
19,BAK1 (UniProt Q16611),inactive: 0

row,Target,dose-dependent thermal stabilisation call
1,BRI3BP (UniProt Q8WY22),inactive: 0
2,BAZ2A (UniProt Q9UIF9),inactive: 0
3,ATG12 (UniProt O94817),inactive: 0
4,BCL2L1 (UniProt Q07817),inactive: 0
5,ATP2B4 (UniProt P23634),inactive: 0
6,ATP8A1 (UniProt Q9Y2Q0),inactive: 0
7,ATP7A (UniProt Q04656),inactive: 0
8,ARL5A (UniProt Q9Y689),inactive: 0
9,BCLAF1 (UniProt Q9NYF8),inactive: 0
10,ATM (UniProt Q13315),inactive: 0
11,BAT2L (UniProt Q5JSZ5),inactive: 0
12,ATF7 (UniProt P17544),inactive: 0
13,ATP2A3 (UniProt Q93084),inactive: 0
14,ARPC3 (UniProt O15145),inactive: 0
15,BCKDK (UniProt O14874),inactive: 0
16,ATG9A (UniProt Q7Z3C6),inactive: 0
17,BMP2K (UniProt Q9NSY1),inactive: 0
18,BIK (UniProt Q13323),inactive: 0

# Quoted at random: 2 records from the list.
row,Target,dose-dependent thermal stabilisation call
7,ATP7A (UniProt Q04656),inactive: 0
3,ATG12 (UniProt O94817),inactive: 0
